PubChem BioAssay AID504764 | Drosophila RNAi Screening Center, 2011

Test: 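Knock-downs that raise or lower a Notch target reporter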 (primary screen)
System: Drosophila Kc167 cells
Reagents: long dsRNA against Drosophila genes
Duration: about 5 days (4 days dsRNA, then 24 h after transfection)
Conditions: transfection of constitutively active membrane-tethered Notch lacking the extracellular domain, read 24 h later
Measurement: 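Firefly luciferase from an E(spl)m3 reporter with active Notch, plus control-promoter and uninduced reporter wells for normalisation; unnormalised counts, duplicate wells a and b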
Reading the numbers: induced reporter light, run 1, well a and induced reporter light, run 1, well b: higher = more light from the Notch target reporter with active Notch; control promoter light, run 1, well a and control promoter light, run 1, well b: higher = more light from the viral control promoter (cell number, transfection, viability); uninduced reporter light, run 1, well a: higher = more light from the Notch target reporter without active Notch
Active means: 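Hit if the duplicate-averaged log2 ratio of induced to control-promoter light gives a plate-wise z beyond ±2, or induced to uninduced beyond ±1.8; weak-control or discordant-duplicate wells dropped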
Calls: active = modifier hit (raised or lowered Notch signal); inactive = not a hit
The screen tested about 22,000 reagents; shown is a random part of those that have a named target and a result. Over the whole deposit, 403 (1.9%) are marked active. 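Unnormalised raw counts per well; ratio z-scores behind the hit calls and whether each hit raises or lowers signal are not deposited.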 A plus sign joins genes that one reagent is predicted to hit. Not stated in the record: the amount of reagent.

predicted target	dsRNA	induced reporter light, run 1, well a	induced reporter light, run 1, well b	control promoter light, run 1, well a	control promoter light, run 1, well b	uninduced reporter light, run 1, well a	outcome
CG15594	DRSC12280	1.13e5	95600	1.08e5	91925	8710	inactive
CCKLR-17D1	DRSC20010	88740	1.03e5	1.13e5	1.37e5	11245	inactive
CCKLR-17D1	DRSC20011	73075	1.00e5	99975	1.09e5	12770	inactive
CCKLR-17D1	DRSC20012	86375	95710	1.03e5	87770	10505	inactive
Rab8	DRSC11261	1.22e5	1.09e5	69295	1.19e5	8725	inactive
Obp83cd	DRSC12267	83590	80385	57930	57890	7435	inactive
Vml	DRSC17695	62560	75610	88485	79690	5920	inactive
Vml	DRSC18529	1.03e5	1.09e5	1.74e5	1.92e5	8465	inactive
CG2256	DRSC18220	1.61e5	1.52e5	2.62e5	2.94e5	11188	inactive
CG16995	DRSC00480	1.21e5	1.30e5	1.29e5	71555	10670	inactive
CG10909	DRSC14282	6455	8225	10592	8530	515	inactive
CG33178	DRSC19950	1.49e5	1.13e5	1.11e5	97385	12820	inactive
CG7296	DRSC03042	79235	76360	93525	78385	7278	inactive
Muc68D	DRSC10569	1.18e5	93225	61775	34725	7738	inactive
CG5846	DRSC02904	2.18e5	2.24e5	2.13e5	1.96e5	15625	inactive
CG31998	DRSC17137	2.15e5	2.01e5	2.84e5	2.49e5	15145	inactive
CG31998	DRSC17138	1.40e5	1.36e5	2.15e5	2.61e5	8738	inactive
Cngl	DRSC20318	91805	99765	1.42e5	1.81e5	10195	inactive
CG14400	DRSC02384	93340	64885	54110	71010	4205	inactive
alpha-Spec	DRSC08704	1.04e5	91135	1.82e5	2.09e5	8445	inactive
CecA1	DRSC16603	1.74e5	1.41e5	1.94e5	1.99e5	11160	inactive
Cdc5	DRSC08577	23138	19380	43360	38580	1940	inactive
Taf10b	DRSC00792	1.03e5	1.03e5	91270	54065	9775	inactive
rpk	DRSC12386	1.29e5	1.17e5	93945	1.23e5	8932	inactive
CG30274	DRSC04171	1.97e5	1.43e5	1.75e5	1.81e5	12920	inactive
Nurf-38	DRSC04629	1.32e5	1.28e5	1.45e5	1.69e5	10520	inactive
schlank	DRSC18102	1.17e5	1.12e5	2.20e5	2.26e5	9840	inactive
schlank	DRSC18313	1.06e5	1.21e5	2.22e5	1.83e5	8155	inactive
Sec22	DRSC18538	1.79e5	1.84e5	2.20e5	1.99e5	16392	inactive
CG12499	DRSC14521	1.90e5	1.79e5	2.38e5	2.57e5	14670	inactive
CG8012	DRSC10951	1.42e5	1.33e5	1.31e5	1.09e5	8345	inactive
Obp56b	DRSC06551	1.50e5	91480	99575	1.04e5	11270	inactive
Ugt302E1	DRSC15635	60520	52340	52850	38365	4425	inactive
CG42369	DRSC03244	1.23e5	1.04e5	1.36e5	99230	7990	inactive
Mi-2 + Su(Tpl)	DRSC09640	2.46e5	2.80e5	3.60e5	2.98e5	19350	inactive
hid	DRSC11316	1.97e5	1.79e5	2.22e5	2.37e5	13540	inactive
sax	DRSC07675	2.02e5	1.74e5	1.65e5	1.95e5	15100	inactive
pdm3	DRSC06076	2.31e5	2.29e5	2.73e5	2.85e5	19410	inactive
pdm3	DRSC06490	1.77e5	1.39e5	2.20e5	2.12e5	16990	inactive
pdm3	DRSC22326						inactive
Roc1b + Cdc5	DRSC08687	1.15e5	1.52e5	1.75e5	3.34e5	9980	inactive
Kank	DRSC05513	2.42e5	2.20e5	2.93e5	2.33e5	17035	inactive
Kank	DRSC05933	1.80e5	1.83e5	1.47e5	1.62e5	12135	inactive
PPP4R2r	DRSC18695	1.44e5	1.29e5	3.05e5	2.82e5	9580	inactive
Cpr47Ee	DRSC06343	11815	8560	13505	10605	3665	inactive
Osi11	DRSC12282	1.23e5	1.22e5	1.10e5	1.13e5	6880	inactive
CG15473	DRSC18056	85665	1.03e5	1.26e5	1.63e5	5995	inactive
CG14634	DRSC17944	1.11e5	1.12e5	1.73e5	1.81e5	8635	inactive
CG3108	DRSC18280	2.15e5	1.91e5	2.15e5	1.96e5	16475	inactive
Hpr1	DRSC12296	66300	66455	35420	33180	4540	inactive
mRpL40	DRSC15749	87985	93070	74700	60150	6525	inactive
CG6023	DRSC19970	90485	89045	83380	55870	7628	inactive
Ugt37B1	DRSC03225	1.97e5	1.71e5	2.05e5	2.03e5	9492	active
Or1a	DRSC18689	1.41e5	1.07e5	2.90e5	2.09e5	8832	inactive
CG9649	DRSC16534	1.46e5	1.12e5	87515	96180	9245	inactive
MFS16	DRSC04051	43370	41345	34875	45140	3245	inactive
Vajk2	DRSC02540	1.37e5	1.43e5	1.43e5	1.85e5	12130	inactive
SA1	DRSC03424	78525	63620	70715	77610	8915	inactive
CG1965	DRSC12577	2.13e5	1.74e5	1.33e5	1.40e5	10800	inactive
CG43775	DRSC04206	1.75e5	1.54e5	1.61e5	1.41e5	12035	inactive
CG14655	DRSC12241	1.84e5	1.61e5	2.74e5	2.58e5	12075	inactive
vir-1	DRSC02501	1.56e5	1.74e5	1.71e5	1.95e5	13980	inactive
vir-1	DRSC02863	83085	91055	1.21e5	1.24e5	7445	inactive
mRpS23	DRSC01348	1.33e5	1.29e5	1.57e5	1.41e5	8910	inactive

Part of the list above, showing only “control promoter light, run 1, well b”.
Taf10b [DRSC00792] = 54065
rpk [DRSC12386] = 1.23e5
CG30274 [DRSC04171] = 1.81e5
Nurf-38 [DRSC04629] = 1.69e5
schlank [DRSC18102] = 2.26e5
schlank [DRSC18313] = 1.83e5
Sec22 [DRSC18538] = 1.99e5
CG12499 [DRSC14521] = 2.57e5
CG8012 [DRSC10951] = 1.09e5
Obp56b [DRSC06551] = 1.04e5
